Publication PMC10630885
Results are given in words; binding and its absence hold for the method and conditions named. In cells and extracts the contact can be indirect. A yes stands for co-enrichment or nearness to the bait. Other partners may have been found. Sequences can lack the tags named with a protein.

Sequences of proteins named here, by UniProt entry; tags and fusion partners are left off. Residues count along the entry.
UniProt P11021, residues 19-654: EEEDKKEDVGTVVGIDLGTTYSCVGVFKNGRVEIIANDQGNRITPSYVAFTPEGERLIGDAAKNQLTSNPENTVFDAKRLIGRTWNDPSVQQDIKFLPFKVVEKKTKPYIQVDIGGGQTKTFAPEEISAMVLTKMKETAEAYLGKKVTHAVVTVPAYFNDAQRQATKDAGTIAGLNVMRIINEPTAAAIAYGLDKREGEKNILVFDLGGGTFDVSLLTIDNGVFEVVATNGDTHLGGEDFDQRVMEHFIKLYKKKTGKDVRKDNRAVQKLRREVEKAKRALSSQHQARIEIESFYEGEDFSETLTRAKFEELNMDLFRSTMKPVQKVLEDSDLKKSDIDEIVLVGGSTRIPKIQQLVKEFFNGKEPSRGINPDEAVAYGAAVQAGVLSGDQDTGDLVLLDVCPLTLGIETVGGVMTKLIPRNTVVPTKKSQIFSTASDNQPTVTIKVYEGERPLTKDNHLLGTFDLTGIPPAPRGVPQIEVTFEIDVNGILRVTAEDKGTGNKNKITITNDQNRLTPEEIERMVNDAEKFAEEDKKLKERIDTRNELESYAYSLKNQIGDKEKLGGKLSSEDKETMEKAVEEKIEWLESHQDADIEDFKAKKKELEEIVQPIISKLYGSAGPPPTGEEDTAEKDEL

Biological target: T1, HA-tagged NRF3-BioID fusion protein (human) (UniProt Q9Y4A8)
T1 sequence: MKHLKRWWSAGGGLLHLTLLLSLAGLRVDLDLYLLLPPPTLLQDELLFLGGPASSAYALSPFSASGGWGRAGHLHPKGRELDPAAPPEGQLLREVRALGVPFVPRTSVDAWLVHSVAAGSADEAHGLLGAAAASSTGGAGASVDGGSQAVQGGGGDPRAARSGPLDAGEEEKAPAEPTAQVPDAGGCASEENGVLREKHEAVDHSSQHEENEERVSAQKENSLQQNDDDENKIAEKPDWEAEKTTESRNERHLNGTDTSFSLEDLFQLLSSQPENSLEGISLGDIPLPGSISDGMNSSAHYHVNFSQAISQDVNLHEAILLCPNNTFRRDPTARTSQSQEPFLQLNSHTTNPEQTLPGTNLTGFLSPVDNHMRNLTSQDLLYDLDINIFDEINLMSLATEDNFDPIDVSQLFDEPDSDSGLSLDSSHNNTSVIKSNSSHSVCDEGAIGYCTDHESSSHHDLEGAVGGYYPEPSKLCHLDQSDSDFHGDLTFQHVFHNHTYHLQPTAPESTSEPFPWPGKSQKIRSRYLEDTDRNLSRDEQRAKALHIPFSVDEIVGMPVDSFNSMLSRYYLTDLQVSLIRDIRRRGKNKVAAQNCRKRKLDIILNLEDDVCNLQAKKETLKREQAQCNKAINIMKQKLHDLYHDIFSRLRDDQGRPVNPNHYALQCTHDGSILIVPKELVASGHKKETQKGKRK
Assay: proximity labelling; BioID in SCC13 and HaCaT cells with Dox-inducible NRF3-BioID-HA; 50 μM biotin and 1 μg/ml Dox or DMSO for 24 h, with or without 10 μM MG-132 for 6 h; streptavidin beads, LC-MS/MS; SAINT probability ≥ 0.95, all three replicates, both cell lines

binding: binds
Substance: heat shock protein A5 (HSPA5) (from UniProt P11021 19-654)
